Values from PubChem BioAssay AID1259300 (Sanger Institute, 2017)
Purpose: 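Kinase and colorectal-mutated gene knock-downs lowering HCT15 viability or boosting drug effects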 (primary screen). Cell system: HCT15 colorectal cancer cells. Reagent: siRNA pool against human genes. Conditions: anchor drug or DMSO vehicle added 24 h after seeding: BYL719 1 µM, cetuximab 5 µg/ml, trametinib 10 nM; drug doses chosen to barely affect viability alone. Measured: 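Cell viability after knock-down, as fraction of non-targeting pool wells averaged over replicates, plus robust z-score for knock-down alone; synergy score per drug (BYL719 1 µM, cetuximab 5 µg/ml, trametinib 10 nM)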. Scale: viability z-score, siRNA alone: higher = more viable cells after knock-down. Hit rule: 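Called active (essential) if viability z-score with knock-down alone falls below -3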. Meaning of the calls: active = essential: knock-down alone lowers viability (z below -3); inactive = no strong viability loss with knock-down alone.
The deposit covers 794 reagents; below is a part drawn at random. 18 of all reagents (2.3%) were called active. 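Calls rest on knock-down alone, not drug synergy; depositor treated synergy scores above 0.15 as synergistic; drug doses alone had little viability effect.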 A number with no mark means an inactive call. Further read-outs or replicates are left out here. Not given: the amount of reagent, the time to read-out.

NME6 (NME/NM23 nucleoside diphosphate kinase 6) — viability z-score, siRNA alone: -1.18
MAP2K2 (mitogen-activated protein kinase kinase 2) — viability z-score, siRNA alone: 0.625
TJP2 (tight junction protein 2) — viability z-score, siRNA alone: 0.625
MSR1 (macrophage scavenger receptor 1) — viability z-score, siRNA alone: 0.344
CDK9 (cyclin dependent kinase 9) — viability z-score, siRNA alone: 0.625
NR4A2 (nuclear receptor subfamily 4 group A member 2) — viability z-score, siRNA alone: -2.04
PIK3C3 (phosphatidylinositol 3-kinase catalytic subunit type 3) — viability z-score, siRNA alone: 0.625
NR2F2 (nuclear receptor subfamily 2 group F member 2) — viability z-score, siRNA alone: -0.959
PIP5K1C (phosphatidylinositol-4-phosphate 5-kinase type 1 gamma) — viability z-score, siRNA alone: -0.119
TGFBR2 (transforming growth factor beta receptor 2) — viability z-score, siRNA alone: -0.305
FN3K (fructosamine 3 kinase) — viability z-score, siRNA alone: 0.625
MAP3K3 (mitogen-activated protein kinase kinase kinase 3) — viability z-score, siRNA alone: -0.21
ALPK2 (alpha kinase 2) — viability z-score, siRNA alone: 0.44
RIOK3 (RIO kinase 3) — viability z-score, siRNA alone: -0.176
RIOK1 (RIO kinase 1) — viability z-score, siRNA alone: -0.388
KCNH8 (potassium voltage-gated channel subfamily H member 8) — viability z-score, siRNA alone: 0.625
PIKFYVE (phosphoinositide kinase, FYVE-type zinc finger containing) — viability z-score, siRNA alone: 0.0143
HUNK (hormonally up-regulated Neu-associated kinase) — viability z-score, siRNA alone: -1.18
PLK3 (polo like kinase 3) — viability z-score, siRNA alone: 0.625
NTRK2 (neurotrophic receptor tyrosine kinase 2) — viability z-score, siRNA alone: 0.625
CAMK2B (calcium/calmodulin dependent protein kinase II beta) — viability z-score, siRNA alone: 0.625

Looked up above.
Result of PIK3C3 (phosphatidylinositol 3-kinase catalytic subunit type 3) under “viability z-score, siRNA alone”: 0.625
For “viability z-score, siRNA alone”, MAP2K2 (mitogen-activated protein kinase kinase 2) reads 0.625
TGFBR2 (transforming growth factor beta receptor 2), viability z-score, siRNA alone → -0.305

The results go on.
TBX3 (T-box transcription factor 3) — viability z-score, siRNA alone: 0.625
ACVRL1 (activin A receptor like type 1) — viability z-score, siRNA alone: -0.493
PIP5K1A (phosphatidylinositol-4-phosphate 5-kinase type 1 alpha) — viability z-score, siRNA alone: -1.72
CDKL2 (cyclin dependent kinase like 2) — viability z-score, siRNA alone: 0.299
GUCY2EP (guanylate cyclase 2E, pseudogene) — viability z-score, siRNA alone: 0.087
SPHK2 (sphingosine kinase 2) — viability z-score, siRNA alone: -0.787
KSR1 (kinase suppressor of ras 1) — viability z-score, siRNA alone: -1.65
BRDT (bromodomain testis associated) — viability z-score, siRNA alone: -0.915
ROR1 (ROR family WNT receptor 1) — viability z-score, siRNA alone: 0.625
AURKB (aurora kinase B) — viability z-score, siRNA alone: -3.07 (active)
TSSK1B (testis specific serine kinase 1B) — viability z-score, siRNA alone: 0.537
RBM10 (RNA binding motif protein 10) — viability z-score, siRNA alone: -2.54
RPS6KA4 (ribosomal protein S6 kinase A4) — viability z-score, siRNA alone: 0.622
PRP4K (pre-mRNA processing factor kinase PRP4K) — viability z-score, siRNA alone: -1.63
POMK (protein O-mannose kinase) — viability z-score, siRNA alone: 0.604
